Experimental data as given in article PMC10731091.

Target: glycated albumin (GA + glycated human serum albumin) (UniProt P02768)
Assay: LSPR (plasmonic wavelength shift)
Settings: GA 0.1-10 uM in flow, aptamer immobilised on Au, MCH/BSA blocked, shift saturates at about 1 uM, detection limit 0.1 uM; 5' amino C6; 3' thiol C6 SS; aptamer (5 uM) immobilised on Au-coated quartz, MCH and BSA blocking, GA in continuous flow; aptamer stock in Tris-EDTA-acetate buffer; assay buffer; single-stranded DNA

TGCGGTTGTAGTACTCGTGGCCG [GA aptamer]: binds.

Construct, isoform or probe ends are uncertain for at least one entry.
